Drawing on PubChem BioAssay AID901 (National Center for Advancing Translational Sciences (NCATS), 2007), this text covers AC50 for 66 compounds.

Some of the results follow. The main result of the screen is listed elsewhere. These columns were measured beside it and carry no call. Most of these compounds were active or inconclusive in the main read-out, so they are no random draw. The note in brackets gives the kind of curve behind each potency; many fits are weak.

This test in a line: qHTS Assay for Identifying the Cell-Membrane Permeable IMPase Inhibitors. The note with it: CHO-M1 cells, IP1 accumulation, HTRF TR-FRET ratio; measured here: donor channel 620 nm AC50. (In general: In qHTS, concentration-response curves come from the screen itself.)
The AC50 is the concentration at which the activity in the assay is half-maximal. For `CCOC(=O)c1ccccc1NC(=O)CN(c1ccccc1)S(=O)(=O)N(C)C`, the AC50 is 35.5 µM [falling, single point]. For the compound `CC(=O)N(Cc1cc2c(C)cc(C)cc2[nH]c1=O)C1CCCCC1`, the AC50 is 0.0631 µM [rising, partial curve, poor fit]. As for `COc1ccc(OCC(=O)Nc2nnc(C)s2)cc1`, the concentration at half-maximal activity (AC50) is 0.0126 µM [rising, full curve, poor fit].

`Cc1nc(SCC(=O)Nc2ccc(F)cc2)c2oc3ccccc3c2n1`: the AC50 is 25.1 µM [rising, single point]. The result for `COc1ccc(C2CC(=O)c3c(C)nc(N4CCN(Cc5ccccc5)CC4)nc3C2)cc1OC` (stereo unspecified) reads 0.0251 µM [rising, full curve, poor fit]; that for `COc1ccc2cc(C(c3nnnn3Cc3ccccc3)N3CCCCCC3)c(=O)[nH]c2c1` (stereo unspecified), 6.31 µM [falling, partial curve, poor fit].

For the compound `Cc1cc(NC(=O)c2cc(CC(C)C)on2)no1`, the AC50 was 0.00447 µM [falling, full curve, poor fit]. For `Cc1ccccc1Cn1c(=O)n(Cc2ccco2)c(=O)c2ccccc21` the value was 0.112 µM [falling, full curve]; for `CCOC(=O)C1CCN(CC(=O)N2CCCc3c2c(=O)oc2ccc(OCc4ccccc4)cc32)CC1`, 35.5 µM [falling, single point]; for `N#CCSc1nc(N)c(C#N)c(C2CCCCC2)c1C#N`, 2.51 µM [rising, single point]. For `CC1CCc2nc(NCCO)nc(C(F)(F)F)c2C1` (stereo unspecified) the value was 31.6 µM [rising, single point]. For `O=C(CSc1ncnc2c1cnn2-c1ccccc1)Nc1ccccc1` the value was 31.6 µM [rising, single point].

Turning to `CCOC(=O)c1nc(NCc2cccnc2)c2ccccc2n1`, the AC50 is 0.02 µM [falling, single point]. Consider `O=C(CSc1ncc(-c2ccc(F)cc2)n1Cc1ccco1)Nc1ccc2c(c1)OCO2`, for which the AC50 was 0.501 µM [rising, full curve, poor fit]. The result for `CCN1/C(=C2\C(=O)N(C)C(=S)N2C)C=Cc2ccccc21` reads 15.8 µM [falling, partial curve]. For `Cc1[nH]c2ccccc2c1/C=C/c1cc[n+](C)cc1` the value was 7.94 µM [falling, partial curve, poor fit]; for `CCOC(=O)C1CCN(CC(=O)Nc2cc(C)nn2-c2nc3ccccc3s2)CC1`, 3.98 µM [falling, single point]; for `Cn1c(=O)n(C)c2cc(NS(=O)(=O)c3ccc(Br)cc3)c(NCc3ccccc3)cc21`, 3.16 µM [falling, partial curve]. The result for `CCCCc1nc2ccccc2n2c(-c3ccc(C)cc3)c3c(=O)n(C)c(=O)n(C)c3c12` reads 0.178 µM [falling, full curve]; that for `N[C@@H](Cc1ccccc1)c1nnc2sc(SCc3ccccc3)nn12`, 25.1 µM [rising, single point]. With `CNC(=S)NNC(=O)CCn1nc(C)c(Br)c1C`, the AC50 was 0.178 µM [falling, full curve, poor fit].

With `CCc1nc(SCc2cccnc2)c2c(=O)n(C)c(=O)n(C)c2n1`, the AC50 was 31.6 µM [rising, single point]. The result for `CC1CN(S(=O)(=O)c2cccc(C(=O)OC/C(O)=C(\C#N)c3nc4ccccc4[nH]3)c2)CC(C)O1` (stereo unspecified) reads 0.126 µM [rising, full curve, poor fit]; that for `COC(=O)c1cnc2ccccc2n1`, 10 µM [falling, partial curve]. The result for `Cc1cc(NS(=O)(=O)c2ccc(NC(=O)c3ccoc3C)cc2)nc(C)n1` reads 0.01 µM [rising, full curve, poor fit]; that for `Cc1cc(NC(=O)CSc2cn(CCNC(=O)c3ccc(Cl)cc3)c3ccccc23)no1`, 5.01 µM [falling, partial curve]; that for `Cc1ccc(N2C(=O)S/C(=C/c3cn(C)c4ccccc34)C2=O)cc1`, 0.01 µM [rising, full curve, poor fit]. As to `CC(C)c1ccccc1OCC(=O)NC1CCCc2ccccc21` (stereo unspecified), the AC50 is 0.708 µM [falling, full curve, poor fit]. The result for `CCCCN1C(=O)NC2NC(=O)NC21` (stereo unspecified) reads 1.26 µM [falling, full curve]; that for `CCN1CCN(c2ccc(NS(=O)(=O)c3c(C)nc4sccn4c3=O)cc2Cl)CC1`, 0.251 µM [falling, partial curve]; that for `COc1ccc(CNC(=S)Nc2ccccc2C)cc1`, 0.0631 µM [falling, full curve, poor fit]. For the compound `Cc1sc2nc3n(c(=O)c2c1C)CCCCC3`, the AC50 is 0.00501 µM [falling, full curve]. The result for `COc1nc(-c2ccccc2)ccc1-c1noc(C)n1` reads 20 µM [falling, single point]; that for `COc1ccc(-c2nn(C)c(=O)c3ccccc23)cc1NC(=O)COc1ccc(C)cc1`, 0.794 µM [falling, full curve, poor fit].

For `CC1=NN(C(N)=S)C(=O)C1N=Nc1ccccc1C` (stereo unspecified), the AC50 was 1 µM [falling, full curve]. The result for `CCOc1cc(N2CCOCC2)c(OCC)cc1NC(=O)c1ccc(=O)n(Cc2ccccc2)n1` reads 3.16 µM [falling, partial curve]; that for `CC(Oc1ccc(Cl)cc1)C(=O)OCC(=O)Nc1ncc(Cl)cc1Cl` (stereo unspecified), 7.94 µM [falling, partial curve, poor fit]; that for `c1ccc(-n2ncc3c(N4CCN(c5ccccn5)CC4)nc(N4CCOCC4)nc32)cc1`, 0.0398 µM [rising, full curve, poor fit]. For `CCCOC(=O)C1C2C=CC3(CN(c4ccc(Cl)c(F)c4)C(=O)C13)O2` (stereo unspecified) the value was 1 µM [falling, full curve, poor fit]; for `CCOc1ccc2nc(SCC(=O)NC(=O)NCc3ccco3)[nH]c2c1`, 0.02 µM [rising, full curve, poor fit]. For `COC(=O)C1=C(C)N=C2SC(C#N)=C(N)N2C1c1cc(OC)c(OC)c(OC)c1` (stereo unspecified) the value was 5.01 µM [rising, single point]. On to `CC(Oc1cccc(F)c1)C(=O)/C=C\N(C)C` (stereo unspecified), for which the AC50 was 31.6 µM [falling, single point]. For `Cc1ccc(NC(=O)c2ccc(OC(=S)N3CCOCC3)cc2)cc1` the value was 0.0316 µM [falling, full curve, poor fit]; for `CC(C)(C)C1CCc2onc(C(=O)Nc3cccc(O)c3)c2C1` (stereo unspecified), 31.6 µM [falling, single point]; for `CCOC(=O)CSc1nc(CC)nc2ccccc12`, 12.6 µM [rising, partial curve]. For `CC(=O)Nc1cc(S(=O)(=O)Nc2cccc(C)c2)c(C)cc1C` the value was 31.6 µM [falling, single point].

`Cc1cc(N2C(=O)C(=O)/C(=C(/O)c3ccc(Cl)cc3)C2c2cccc(Br)c2)no1` (stereo unspecified): the AC50 was 12.6 µM [rising, single point]. For `COc1ccc(OC)c(NS(=O)(=O)c2ccc(Cl)s2)c1` the value was 25.1 µM [falling, single point]; for `COc1ccccc1NC(=O)CCNC(=O)Cn1ccc2ccccc2c1=O`, 31.6 µM [falling, single point]; for `Nc1scc2c(C(=O)N/N=C/c3ccc(Cl)cc3)nn(-c3ccccc3)c(=O)c12`, 20 µM [falling, partial curve, poor fit]. For `CCCCCCn1c(CN2CCN(C(=O)c3ccco3)CC2)nc2c1c(=O)n(C)c(=O)n2C` the value was 31.6 µM [rising, single point]; for `Cc1ccc(OCC(O)CN2C(=O)NC(C)(C)C2=O)cc1` (stereo unspecified), 31.6 µM [falling, single point]; for `CCOC(=O)/C(C(C)=O)=C1\OC(=O)c2ccccc21`, 0.00316 µM [rising, full curve, poor fit].

Turning to `COc1ccc(OC)c(-n2c(-c3cc(-c4ccc(F)cc4)n[nH]3)n[nH]c2=S)c1`, the AC50 is 6.31 µM [rising, full curve, poor fit]. For `CCOC(=O)CSC1=C(C#N)C(c2ccc(OC)cc2)C2=C(CC(C)(C)CC2=O)N1` (stereo unspecified) the value was 12.6 µM [rising, partial curve]; for `COc1ccc(N(CC(O)CN2CCCCC2)S(=O)(=O)c2ccc(C)cc2)cc1` (stereo unspecified), 0.00501 µM [falling, full curve, poor fit]. For `Cc1occc1C(=O)NC(C)C(C)(C)C` (stereo unspecified) the value was 1.12 µM [rising, full curve, poor fit]; for `COC(=O)C1=C(NC(C)=O)CCS1`, 35.5 µM [falling, single point]. For `CCc1ccccc1NC(=O)c1nnn(CC(=O)Nc2cccc(C)c2C)c1N` the value was 25.1 µM [rising, single point]; for `CC1CCc2c(sc3nnn(CC(=O)Nc4cccc(C(F)(F)F)c4)c(=O)c23)C1` (stereo unspecified), 0.01 µM [falling, full curve, poor fit]. As for `CC(C)CC(=O)Nc1nc2ccc(S(=O)(=O)N3CCOCC3)cc2s1`, the AC50 was 3.16 µM [rising, single point]. The result for `CC(C)(C)CC(=O)Nc1nnc(C(F)(F)F)s1` reads 0.794 µM [falling, full curve]; that for `COc1ccc(/C=C(\NC(=O)c2ccccc2)C(=O)NC2CCCCC2)cc1`, 6.31 µM [falling, single point]. For `O=C(O)c1cccc(NC(=O)c2cccc(NC(=O)C3CCCO3)c2)c1` (stereo unspecified) the value was 5.01 µM [rising, single point]; for `CCNNC(=O)C(O)(c1cccc(C)c1)c1cccc(C)c1`, 6.31 µM [falling, single point]; for `Cc1cc2ncc(-c3ncc(C(F)(F)F)cc3Cl)cn2n1`, 35.5 µM [falling, single point].
